No constants are given. Whether binding was seen depends on the method and setting. Some binding calls cover weakened binding; strength is not graded here.
Legend:
[1] = target: CD7 (Cluster of Differentiation 7) (human) (UniProt P09564); experiment: flow cytometry: soluble scFv supernatant on CD7+ MOLT-4 cells, detected with biotin goat anti-mouse F(ab')2 and streptavidin-APC
[2] = target: CD7 (Cluster of Differentiation 7) (human) (UniProt P09564); experiment: flow cytometry: supernatant of Jurkat cells transduced with anti-CD7 scFv on CD7+ MOLT-4 cells

Sequences of proteins named here, by UniProt entry; tags and fusion partners are left off. Residues count along the entry.
UniProt P09564, residues 26-240: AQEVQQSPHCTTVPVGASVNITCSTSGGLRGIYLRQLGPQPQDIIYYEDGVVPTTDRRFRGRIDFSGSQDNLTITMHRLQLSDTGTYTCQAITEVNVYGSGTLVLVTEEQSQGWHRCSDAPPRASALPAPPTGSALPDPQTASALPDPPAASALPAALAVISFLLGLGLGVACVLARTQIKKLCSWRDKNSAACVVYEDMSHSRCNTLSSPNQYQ

- binding [1]: binds
- binding [2]: binds
B1: soluble anti-CD7 scFv (single chain variable fragment of the anti-CD7 monoclonal antibody TH69) (scFv)
scFv: AAYKDIQMTQTTSSLSASLGDRVTISCSASQGISNYLNWYQQKPDGTVKLLIYYTSSLHSGVPSRFSGSGSGTDYSLTISNLEPEDIATYYCQQYSKLPYTFGGGTKLEIKRGGGGSGGGGSGGGGSGGGGSEVQLVESGGGLVKPGGSLKLSCAASGLTFSSYAMSWVRQTPEKRLEWVASISSGGFTYYPDSVKGRFTISRDNARNILYLQMSSLRSEDTAMYYCARDEVRGYLDVWGAGTTVTVSS
